Measurements published in article PMC4705694.
Results are given in words; binding and its absence hold for the method and conditions named. Some results given as binding are weak or reduced against the parent protein; the word gives no strength.

Amino acid sequences for entries named in this document (tags omitted). A change or cut given only in a name is not applied to a line headed by its entry.
UniProt P0ACB0: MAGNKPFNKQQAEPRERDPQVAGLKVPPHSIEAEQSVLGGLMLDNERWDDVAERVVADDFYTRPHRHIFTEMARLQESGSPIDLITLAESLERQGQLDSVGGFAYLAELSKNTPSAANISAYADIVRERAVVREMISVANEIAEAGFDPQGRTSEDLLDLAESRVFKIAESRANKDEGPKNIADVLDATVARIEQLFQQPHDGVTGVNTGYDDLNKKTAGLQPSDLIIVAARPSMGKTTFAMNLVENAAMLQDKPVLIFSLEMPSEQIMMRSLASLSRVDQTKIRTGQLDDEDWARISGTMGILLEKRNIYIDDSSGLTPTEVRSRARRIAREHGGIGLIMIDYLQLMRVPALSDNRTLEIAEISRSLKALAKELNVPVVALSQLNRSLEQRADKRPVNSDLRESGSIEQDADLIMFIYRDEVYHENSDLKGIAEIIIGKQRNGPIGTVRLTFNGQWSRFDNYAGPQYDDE

Experiments:
DnaB (E. coli) [1] = biological target: DnaB (E. coli) (UniProt P0ACB0); assay: HDX-MS; DnaB, DnaC or the isolated BC complex in Buffer A with ATP or ATPγS diluted 10-fold into D2O buffer at 20°C; quench with formic acid, online pepsin digestion, ESI-MS; both purified
DnaB (E. coli) [2] = biological target: DnaB (E. coli) (UniProt P0ACB0); assay: ELISA; ELISA that measures the direct interaction of DnaB with DnaC (Supplementary Figure S4C); format not shown
DnaB R296A (E. coli) = DnaB R296A (E. coli) (UniProt P0ACB0); assay: as above
DnaB D291A (E. coli) = DnaB D291A (E. coli) (UniProt P0ACB0); assay: as above
DnaB K431A (E. coli) = DnaB K431A (E. coli) (UniProt P0ACB0); assay: as above

binding (DnaB (E. coli) [1]): binds | binding (DnaB (E. coli) [2]): binds | binding (DnaB R296A (E. coli)): binds | binding (DnaB D291A (E. coli)): binds | binding (DnaB K431A (E. coli)): binds
B1: DnaC (protein, UniProt P0AEF0 1-245)
chain: MKNVGDLMQRLQKMMPAHIKPAFKTGEELLAWQKEQGAIRSAALERENRAMKMQRTFNRSGIRPLHQNCSFENYRVECEGQMNALSKARQYVEEFDGNIASFIFSGKPGTGKNHLAAAICNELLLRGKSVLIITVADIMSAMKDTFRNSGTSEEQLLNDLSNVDLLVIDEIGVQTESKYEKVIINQIVDRRSSSKRPTGMLTNSNMEEMTKLLGERVMDRMRLGNSLWVIFNWDSYRSRVTGKEY
